The results in this text go back to publication PMC7471912.

By UniProt entry, the sequences of proteins in these tests, tags left out.
UniProt Q16665: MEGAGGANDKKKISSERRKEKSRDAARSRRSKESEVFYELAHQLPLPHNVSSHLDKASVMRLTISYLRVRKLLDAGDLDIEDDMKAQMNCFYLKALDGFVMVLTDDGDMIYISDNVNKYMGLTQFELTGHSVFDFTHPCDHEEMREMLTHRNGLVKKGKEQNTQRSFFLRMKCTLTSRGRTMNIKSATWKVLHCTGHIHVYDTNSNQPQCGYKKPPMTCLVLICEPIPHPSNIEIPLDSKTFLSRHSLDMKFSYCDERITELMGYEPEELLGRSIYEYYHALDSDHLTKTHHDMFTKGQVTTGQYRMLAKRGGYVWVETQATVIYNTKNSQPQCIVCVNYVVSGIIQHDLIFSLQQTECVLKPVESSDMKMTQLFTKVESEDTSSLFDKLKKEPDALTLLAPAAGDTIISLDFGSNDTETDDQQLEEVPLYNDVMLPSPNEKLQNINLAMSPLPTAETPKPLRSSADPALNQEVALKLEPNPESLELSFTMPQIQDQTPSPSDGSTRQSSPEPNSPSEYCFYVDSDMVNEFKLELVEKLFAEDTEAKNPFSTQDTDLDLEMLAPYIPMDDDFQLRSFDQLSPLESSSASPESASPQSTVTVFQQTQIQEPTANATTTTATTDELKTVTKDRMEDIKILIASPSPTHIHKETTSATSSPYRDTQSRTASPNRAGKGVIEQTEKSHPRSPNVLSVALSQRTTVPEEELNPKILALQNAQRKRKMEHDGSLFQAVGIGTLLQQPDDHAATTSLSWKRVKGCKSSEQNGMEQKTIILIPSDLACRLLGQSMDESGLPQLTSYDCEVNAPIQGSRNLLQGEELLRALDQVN
UniProt Q9ULZ3: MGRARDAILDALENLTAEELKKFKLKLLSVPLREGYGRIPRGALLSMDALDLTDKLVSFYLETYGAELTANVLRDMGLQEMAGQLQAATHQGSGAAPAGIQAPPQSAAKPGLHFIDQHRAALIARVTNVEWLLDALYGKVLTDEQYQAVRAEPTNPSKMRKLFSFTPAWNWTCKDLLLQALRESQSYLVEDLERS

Results are given in words; binding and its absence hold for the method and conditions named. Binding seen in cells or lysates may run through a third protein. Some entries that bind do so weakly or less than the wild type.

Assay [1] deals with HIF-1α (human (endogenous in SAS)) (UniProt Q16665). The experiment in a line: co-IP; extracts from cytoplasmic and nuclear fractions of SAS_ASC cells, immunoprecipitated with anti-HIF-1α, Western blot with anti-ASC; HDAC1 as nucleus-specific marker. A general note: A western blot detects proteins with antibodies after separation by electrophoresis.
Assay [2] has the same target. The experiment in a line: co-IP; total cell extracts of SAS_ASC cells under normoxia, immunoprecipitated with anti-HIF-1α, Western blot with anti-HIF-1α and anti-ASC.

Regarding “Apoptosis-associated speck-like protein containing a CARD (from UniProt Q9ULZ3 1-195)”, the binding entry in assay [1] and in assay [2] was “binds” each time.
